The list shows a part of the results. Most values lie at the level of the controls, where differences are scatter.

Amino acid sequences for entries named in this document (tags omitted). A change or cut given only in a name is not applied to a line headed by its entry.
UniProt Q8TBM8: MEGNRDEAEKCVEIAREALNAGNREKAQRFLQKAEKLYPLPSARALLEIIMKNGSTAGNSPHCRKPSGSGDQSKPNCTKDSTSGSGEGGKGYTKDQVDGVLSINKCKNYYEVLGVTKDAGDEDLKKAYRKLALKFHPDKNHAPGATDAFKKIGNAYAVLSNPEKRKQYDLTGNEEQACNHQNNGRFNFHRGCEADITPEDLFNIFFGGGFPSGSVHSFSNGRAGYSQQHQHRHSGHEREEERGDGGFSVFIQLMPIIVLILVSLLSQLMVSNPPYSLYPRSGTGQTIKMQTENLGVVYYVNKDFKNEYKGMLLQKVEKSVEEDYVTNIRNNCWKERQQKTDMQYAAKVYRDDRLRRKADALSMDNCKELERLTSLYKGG
UniProt Q8TBF2: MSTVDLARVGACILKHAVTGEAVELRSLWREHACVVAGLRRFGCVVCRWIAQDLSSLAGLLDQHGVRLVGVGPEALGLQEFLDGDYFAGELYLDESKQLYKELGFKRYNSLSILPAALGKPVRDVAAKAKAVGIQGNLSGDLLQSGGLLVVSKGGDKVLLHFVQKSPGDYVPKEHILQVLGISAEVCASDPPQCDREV
UniProt Q8ND82: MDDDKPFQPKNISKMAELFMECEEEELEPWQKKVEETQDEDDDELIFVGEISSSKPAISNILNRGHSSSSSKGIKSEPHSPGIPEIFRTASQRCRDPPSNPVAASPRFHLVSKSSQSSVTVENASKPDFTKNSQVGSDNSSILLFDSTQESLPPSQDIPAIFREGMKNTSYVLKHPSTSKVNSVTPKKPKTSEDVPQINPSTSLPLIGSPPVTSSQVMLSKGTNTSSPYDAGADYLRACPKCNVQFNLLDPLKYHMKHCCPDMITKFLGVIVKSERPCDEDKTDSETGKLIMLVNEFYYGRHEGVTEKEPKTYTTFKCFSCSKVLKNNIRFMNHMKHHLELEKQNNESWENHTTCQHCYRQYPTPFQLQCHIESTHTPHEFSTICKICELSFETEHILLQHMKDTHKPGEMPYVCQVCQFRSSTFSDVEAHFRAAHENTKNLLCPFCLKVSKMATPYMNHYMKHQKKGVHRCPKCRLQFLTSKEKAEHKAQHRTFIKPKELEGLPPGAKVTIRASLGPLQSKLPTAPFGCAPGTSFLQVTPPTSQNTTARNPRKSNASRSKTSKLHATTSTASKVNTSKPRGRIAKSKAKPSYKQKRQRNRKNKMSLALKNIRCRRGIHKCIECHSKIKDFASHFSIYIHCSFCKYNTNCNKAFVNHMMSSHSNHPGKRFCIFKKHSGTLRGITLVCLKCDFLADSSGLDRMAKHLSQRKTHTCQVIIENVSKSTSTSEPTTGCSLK
UniProt Q8NCE2: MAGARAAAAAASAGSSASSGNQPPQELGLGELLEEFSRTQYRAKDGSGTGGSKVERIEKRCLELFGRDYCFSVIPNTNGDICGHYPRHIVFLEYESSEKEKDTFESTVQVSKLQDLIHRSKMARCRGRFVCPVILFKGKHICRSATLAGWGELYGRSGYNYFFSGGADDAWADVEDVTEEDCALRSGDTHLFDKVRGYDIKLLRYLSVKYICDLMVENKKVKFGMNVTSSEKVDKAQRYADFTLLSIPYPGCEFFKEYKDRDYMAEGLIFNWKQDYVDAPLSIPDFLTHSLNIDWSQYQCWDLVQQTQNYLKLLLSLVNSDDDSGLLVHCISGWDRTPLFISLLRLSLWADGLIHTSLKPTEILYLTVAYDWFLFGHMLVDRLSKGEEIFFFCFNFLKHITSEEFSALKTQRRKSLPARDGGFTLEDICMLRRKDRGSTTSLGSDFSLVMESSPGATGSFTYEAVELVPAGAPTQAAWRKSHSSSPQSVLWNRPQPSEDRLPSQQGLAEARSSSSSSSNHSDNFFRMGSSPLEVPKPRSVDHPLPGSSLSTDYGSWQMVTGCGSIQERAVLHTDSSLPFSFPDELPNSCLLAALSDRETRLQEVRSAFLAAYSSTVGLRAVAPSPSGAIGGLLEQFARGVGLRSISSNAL
UniProt Q8N5Y2: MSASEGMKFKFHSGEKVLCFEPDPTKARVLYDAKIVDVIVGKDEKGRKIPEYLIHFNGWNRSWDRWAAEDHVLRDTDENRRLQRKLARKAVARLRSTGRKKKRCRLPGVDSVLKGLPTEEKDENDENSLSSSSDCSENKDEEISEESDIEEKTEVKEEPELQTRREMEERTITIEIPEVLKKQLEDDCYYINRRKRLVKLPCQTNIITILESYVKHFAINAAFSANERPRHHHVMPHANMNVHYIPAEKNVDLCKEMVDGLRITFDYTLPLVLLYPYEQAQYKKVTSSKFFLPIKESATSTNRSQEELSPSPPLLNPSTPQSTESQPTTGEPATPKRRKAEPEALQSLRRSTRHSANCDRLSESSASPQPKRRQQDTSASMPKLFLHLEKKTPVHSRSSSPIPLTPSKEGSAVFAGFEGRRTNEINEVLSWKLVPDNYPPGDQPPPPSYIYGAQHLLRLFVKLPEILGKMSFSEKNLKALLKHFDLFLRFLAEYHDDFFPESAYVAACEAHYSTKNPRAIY
UniProt Q8NG48: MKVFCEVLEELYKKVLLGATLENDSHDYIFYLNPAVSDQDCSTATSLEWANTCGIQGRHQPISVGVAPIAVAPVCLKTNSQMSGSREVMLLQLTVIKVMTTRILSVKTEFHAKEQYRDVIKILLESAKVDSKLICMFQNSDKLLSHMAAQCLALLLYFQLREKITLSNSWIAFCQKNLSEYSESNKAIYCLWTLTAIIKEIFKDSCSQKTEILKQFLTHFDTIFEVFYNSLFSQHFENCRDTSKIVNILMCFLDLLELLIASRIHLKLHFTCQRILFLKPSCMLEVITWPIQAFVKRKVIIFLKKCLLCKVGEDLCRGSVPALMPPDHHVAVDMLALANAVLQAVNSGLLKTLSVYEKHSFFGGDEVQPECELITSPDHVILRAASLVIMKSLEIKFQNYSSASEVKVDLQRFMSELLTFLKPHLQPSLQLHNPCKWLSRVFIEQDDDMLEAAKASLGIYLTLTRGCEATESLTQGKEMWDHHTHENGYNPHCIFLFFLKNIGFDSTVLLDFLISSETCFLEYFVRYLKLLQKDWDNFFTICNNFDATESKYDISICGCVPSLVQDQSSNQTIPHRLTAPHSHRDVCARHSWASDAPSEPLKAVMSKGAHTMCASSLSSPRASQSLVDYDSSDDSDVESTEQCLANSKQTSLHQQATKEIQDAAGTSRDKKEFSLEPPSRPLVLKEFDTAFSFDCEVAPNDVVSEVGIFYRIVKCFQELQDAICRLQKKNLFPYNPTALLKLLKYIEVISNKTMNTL
UniProt Q8NI51: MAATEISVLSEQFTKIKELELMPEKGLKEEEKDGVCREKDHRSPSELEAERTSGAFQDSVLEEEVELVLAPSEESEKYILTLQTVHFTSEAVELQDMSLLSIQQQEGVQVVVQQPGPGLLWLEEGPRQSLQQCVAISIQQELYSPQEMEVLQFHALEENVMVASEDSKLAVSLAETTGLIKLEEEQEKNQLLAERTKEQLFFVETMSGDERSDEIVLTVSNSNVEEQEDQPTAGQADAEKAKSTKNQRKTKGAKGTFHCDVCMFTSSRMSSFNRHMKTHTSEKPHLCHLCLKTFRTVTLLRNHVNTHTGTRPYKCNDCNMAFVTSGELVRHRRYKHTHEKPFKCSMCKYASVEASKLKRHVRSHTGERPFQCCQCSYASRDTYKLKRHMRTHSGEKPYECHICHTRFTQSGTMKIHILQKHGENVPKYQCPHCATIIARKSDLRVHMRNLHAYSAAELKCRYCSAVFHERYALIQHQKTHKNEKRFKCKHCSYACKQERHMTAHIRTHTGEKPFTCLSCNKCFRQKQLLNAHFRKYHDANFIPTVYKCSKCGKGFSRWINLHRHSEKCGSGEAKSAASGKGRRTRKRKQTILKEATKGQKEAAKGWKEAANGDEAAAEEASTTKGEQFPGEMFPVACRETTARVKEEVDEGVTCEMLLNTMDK
UniProt Q8NEV1, whole entry, looked up: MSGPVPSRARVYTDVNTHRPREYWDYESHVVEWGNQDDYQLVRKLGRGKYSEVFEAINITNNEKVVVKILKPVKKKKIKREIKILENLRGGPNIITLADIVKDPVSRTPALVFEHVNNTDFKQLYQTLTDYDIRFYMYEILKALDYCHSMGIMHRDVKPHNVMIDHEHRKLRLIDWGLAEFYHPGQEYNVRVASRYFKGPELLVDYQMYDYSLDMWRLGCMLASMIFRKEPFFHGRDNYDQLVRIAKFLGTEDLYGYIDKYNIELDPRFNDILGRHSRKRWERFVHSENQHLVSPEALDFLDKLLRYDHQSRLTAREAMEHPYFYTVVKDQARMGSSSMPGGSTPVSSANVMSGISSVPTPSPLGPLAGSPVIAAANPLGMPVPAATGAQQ
UniProt Q8N653: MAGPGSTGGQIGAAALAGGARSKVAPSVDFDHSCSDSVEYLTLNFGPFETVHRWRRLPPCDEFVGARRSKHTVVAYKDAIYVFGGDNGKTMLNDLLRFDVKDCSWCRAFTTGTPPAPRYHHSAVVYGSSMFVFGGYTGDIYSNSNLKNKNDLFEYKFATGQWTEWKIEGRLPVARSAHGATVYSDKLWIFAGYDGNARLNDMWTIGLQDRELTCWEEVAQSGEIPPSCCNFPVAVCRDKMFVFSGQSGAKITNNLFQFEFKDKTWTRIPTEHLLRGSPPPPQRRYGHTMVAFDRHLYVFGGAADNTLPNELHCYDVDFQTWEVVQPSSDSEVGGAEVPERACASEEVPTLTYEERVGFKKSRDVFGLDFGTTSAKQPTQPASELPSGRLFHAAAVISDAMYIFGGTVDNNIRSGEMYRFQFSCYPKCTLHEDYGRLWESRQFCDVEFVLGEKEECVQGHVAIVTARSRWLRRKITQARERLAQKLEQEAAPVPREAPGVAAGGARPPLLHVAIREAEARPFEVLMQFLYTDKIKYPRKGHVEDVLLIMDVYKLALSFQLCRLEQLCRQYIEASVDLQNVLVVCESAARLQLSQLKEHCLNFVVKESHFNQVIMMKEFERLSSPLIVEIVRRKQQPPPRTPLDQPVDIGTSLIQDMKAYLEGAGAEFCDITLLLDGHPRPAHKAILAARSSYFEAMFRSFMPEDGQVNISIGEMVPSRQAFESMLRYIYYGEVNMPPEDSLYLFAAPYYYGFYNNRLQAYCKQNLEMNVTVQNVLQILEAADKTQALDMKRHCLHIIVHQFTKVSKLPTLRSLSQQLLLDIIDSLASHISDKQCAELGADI
UniProt Q8NEL9: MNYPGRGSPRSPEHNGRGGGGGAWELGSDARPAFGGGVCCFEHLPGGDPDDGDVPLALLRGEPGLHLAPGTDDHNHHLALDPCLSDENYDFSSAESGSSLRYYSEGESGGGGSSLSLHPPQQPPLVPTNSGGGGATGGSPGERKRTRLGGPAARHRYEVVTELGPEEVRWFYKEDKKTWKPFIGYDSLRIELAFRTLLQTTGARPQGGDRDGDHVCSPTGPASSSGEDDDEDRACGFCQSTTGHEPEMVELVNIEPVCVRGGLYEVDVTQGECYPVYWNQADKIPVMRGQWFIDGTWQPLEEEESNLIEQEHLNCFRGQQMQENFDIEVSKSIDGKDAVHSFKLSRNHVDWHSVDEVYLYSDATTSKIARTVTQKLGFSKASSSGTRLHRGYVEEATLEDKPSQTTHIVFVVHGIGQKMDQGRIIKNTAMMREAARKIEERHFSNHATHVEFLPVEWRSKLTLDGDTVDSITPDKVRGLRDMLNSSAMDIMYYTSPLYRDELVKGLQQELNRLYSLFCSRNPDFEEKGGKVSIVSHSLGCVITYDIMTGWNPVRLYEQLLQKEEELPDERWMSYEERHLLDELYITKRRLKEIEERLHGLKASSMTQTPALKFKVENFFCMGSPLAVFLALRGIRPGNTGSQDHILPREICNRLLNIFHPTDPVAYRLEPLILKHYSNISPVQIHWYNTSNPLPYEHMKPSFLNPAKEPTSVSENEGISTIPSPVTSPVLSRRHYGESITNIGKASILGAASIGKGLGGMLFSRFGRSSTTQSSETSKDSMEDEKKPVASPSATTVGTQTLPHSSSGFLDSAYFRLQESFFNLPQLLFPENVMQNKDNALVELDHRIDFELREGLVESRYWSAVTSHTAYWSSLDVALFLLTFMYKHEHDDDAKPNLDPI
UniProt Q8NEF9: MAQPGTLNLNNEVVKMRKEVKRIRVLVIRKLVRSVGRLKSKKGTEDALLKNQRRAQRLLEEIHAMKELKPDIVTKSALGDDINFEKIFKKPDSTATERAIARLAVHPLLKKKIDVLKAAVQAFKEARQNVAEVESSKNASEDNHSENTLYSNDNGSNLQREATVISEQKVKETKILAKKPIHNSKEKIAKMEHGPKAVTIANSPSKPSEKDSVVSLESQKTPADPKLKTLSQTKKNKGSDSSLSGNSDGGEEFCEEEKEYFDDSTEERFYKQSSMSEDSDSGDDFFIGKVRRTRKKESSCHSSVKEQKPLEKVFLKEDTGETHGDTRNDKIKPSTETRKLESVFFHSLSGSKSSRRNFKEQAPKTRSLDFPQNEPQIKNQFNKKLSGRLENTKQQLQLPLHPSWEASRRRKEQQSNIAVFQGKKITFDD
UniProt Q8N6N6: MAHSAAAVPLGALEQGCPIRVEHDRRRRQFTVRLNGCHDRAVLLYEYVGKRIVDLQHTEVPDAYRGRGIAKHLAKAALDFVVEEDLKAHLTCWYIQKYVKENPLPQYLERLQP

Compound in this test: CN[C@@H]1C[C@H]2O[C@@](C)([C@@H]1OC)n1c3ccccc3c3c4c(c5c6ccccc6n2c5c31)C(=O)NC4 [staurosporine]
The test can be described thus: log2 fold change of tryptic peptide abundance, ligand vs vehicle (limited proteolysis) (log2 ratio); higher = more trypsin-susceptible (destabilized). Particulars: ligand concentration: 20 uM; sample: K562 cleared lysate; digestion: 4 min, 22 C (HT-PELSA RT4min, Orbitrap Astral).
On to “LPCAT1 (peptide sequence: AAPASSAGASDAR, peptide start residue: 10) (UniProt Q8NF37)”, for which the log2 fold change amounted to 0.0776. Then “DNAJB14 (peptide sequence: MEGNRDEAEK, peptide start residue: 1) (UniProt Q8TBM8)”, with -0.226; and “DCAF4L2 (peptide sequence: TLYVPNR, peptide start residue: 119) (UniProt Q8NA75)”, with -0.208. For “USP32 (peptide sequence: LRLPQIGSK, peptide start residue: 1409) (UniProt Q8NFA0)” the value was 1.77. As for “SMARCC2 (peptide sequence: MDRNVEMFMTIEK, peptide start residue: 117) (UniProt Q8TAQ2)”, the log2 fold change was 0.667. As for “C12orf45 (peptide sequence: TSTLQTVR, peptide start residue: 55) (UniProt Q8N5I9)”, the log2 fold change is -0.193. Then “UniProt Q8TBF2 (peptide sequence: RYNSLSILPAALGKPVR, peptide start residue: 107)”, with 0.159; and “IPMK (peptide sequence: VENLEQDNGWK, peptide start residue: 337) (UniProt Q8NFU5)”, with -0.357.

Take “UniProt Q8NE65 (peptide sequence: VMLENFR, peptide start residue: 63)”: the log2 fold change is -0.349. In the case of “CCDC71L (peptide sequence: DVYGYSSCR, peptide start residue: 97) (UniProt Q8N9Z2)”, the log2 fold change worked out at 0.296. Turning to “UniProt Q8N972 (peptide sequence: AFSCSSSFR, peptide start residue: 371)”, the log2 fold change worked out at 0.156.

In the case of “UniProt Q8NEK5 (peptide sequence: TPTSLNIR, peptide start residue: 517)”, the log2 fold change was 0.247. Regarding “PPP1R14C (peptide sequence: VFFQSPR, peptide start residue: 21) (UniProt Q8TAE6)”, the log2 fold change is 0.0153. For “GOLGA5 (peptide sequence: VDQGAATALSR, peptide start residue: 18) (UniProt Q8TBA6)” the value was -0.449. On to “ZNF808 (peptide sequence: NSVLAVHTR, peptide start residue: 551) (UniProt Q8N4W9)”, for which the log2 fold change is 0.495. Regarding “ZNF280C (peptide sequence: LHATTSTASK, peptide start residue: 565) (UniProt Q8ND82)”, the log2 fold change stood at 0.646.

With “ZNF579 (peptide sequence: HAQVHAGGPAPHPCPRCPR, peptide start residue: 430) (UniProt Q8NAF0)”, the log2 fold change came to 0.814.

Take “NUP43 (peptide sequence: TPEILTVNSIGQLK, peptide start residue: 183) (UniProt Q8NFH3)”: the log2 fold change was -0.559.

Take “UniProt Q8N8J0 (peptide sequence: EFDFFNK, peptide start residue: 1734)”: the log2 fold change is -0.645. In the case of “SUMF1 (peptide sequence: EANAPGPVPGER, peptide start residue: 73) (UniProt Q8NBK3)”, the log2 fold change is -0.117. Turning to “TDRD7 (peptide sequence: TMPFFLEGKPK, peptide start residue: 110) (UniProt Q8NHU6)”, the log2 fold change is -0.191. Then “KMT2C (peptide sequence: AVHGGFEDCRPLNKK, peptide start residue: 4337) (UniProt Q8NEZ4)”, with 0.568. For the target “FBXO22 (peptide sequence: VVAEELENVR, peptide start residue: 87) (UniProt Q8NEZ5)”, the log2 fold change was -0.168.

In the case of “UniProt Q8NFP7 (peptide sequence: EWFKVEDAIK, peptide start residue: 118)”, the log2 fold change was -0.0987. For “MTMR14 (peptide sequence: HIVFLEYESSEK, peptide start residue: 88) (UniProt Q8NCE2)” the value was -0.568.

For the target “MSL3 (peptide sequence: SSSPIPLTPSK, peptide start residue: 398) (UniProt Q8N5Y2)”, the log2 fold change is 0.496. For the target “PPTC7 (peptide sequence: LHTANLGDSGFLVVR, peptide start residue: 151) (UniProt Q8NI37)”, the log2 fold change amounted to 0.619.

Turning to “LINS1 (peptide sequence: HQPISVGVAPIAVAPVCLK, peptide start residue: 59) (UniProt Q8NG48)”, the log2 fold change came out at 0.6. As to “CTCFL (peptide sequence: GTFHCDVCMFTSSR, peptide start residue: 255) (UniProt Q8NI51)”, the log2 fold change was -0.222.

With “UniProt Q8N8K9 (peptide sequence: GPPGTHGTNQQVAMQMPVSTSHPNK, peptide start residue: 295)”, the log2 fold change was -0.455. Then “MLKL (peptide sequence: VLGLIKPLEMLQDQGKR, peptide start residue: 35) (UniProt Q8NB16)”, with 0.297; and “UniProt Q8NEV1 (peptide sequence: ARVYTDVNTHRPR, peptide start residue: 9)”, with -0.578; and “PDCD7 (peptide sequence: DRQWLEAVFGTPR, peptide start residue: 143) (UniProt Q8N8D1)”, with -0.366. As for “LZTR1 (peptide sequence: LEQEAAPVPR, peptide start residue: 485) (UniProt Q8N653)”, the log2 fold change is -0.16. For “DDHD1 (peptide sequence: HRYEVVTELGPEEVR, peptide start residue: 155) (UniProt Q8NEL9)” the value was -0.221; for “SRFBP1 (peptide sequence: QQLQLPLHPSWEASR, peptide start residue: 394) (UniProt Q8NEF9)”, 0.332. For “NATD1 (peptide sequence: IVDLQHTEVPDAYR, peptide start residue: 52) (UniProt Q8N6N6)” the value was -0.237.

The record behind these values is the supplement of paper PMC12819154, “High-throughput peptide-centric local stability assay extends protein–ligand identification to membrane proteins, tissues and bacteria” (Nature Structural & Molecular Biology, 2025).
